PubChem BioAssay AID743454 | Peter MacCallum Cancer Centre, 2014
The whole screen tested about 18,000 reagents; shown is an unselected part. 450 of them (2.5%) count as active. 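Single biological run; no consistent viability z cut-off exists, so the class columns, not z-scores, define the calls.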 Unmarked entries are inactive. Reagent sequences are not shown.

Purpose: 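Genes whose loss kills vorinostat-resistant colon cancer cells under vorinostat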 (primary screen)
System: human HCT116-VR colon cancer cells, selected for vorinostat resistance
Reagents: siRNA pool against human genes, 40 nM siRNA pool
Duration: vorinostat for 24 h, read-out about 72 h after transfection
Conditions: vorinostat at 2.5 µM final
Measurement: 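Two measures, CellTiter-Fluor viability and luminescent caspase 3/7 activity, each as fold change against same-plate mock wells, mean of duplicates, then screen-wide robust z-score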
Scale: viability robust z-score: higher = more viable cells than screen typical; caspase robust z-score: higher = more caspase 3/7 activity than screen typical
Call rule: 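Hits are knock-downs in viability class RV1/RV2 or caspase class CA1/CA2, excluding ones that killed cells in the no-drug cell-count arm; hits then retested with single siRNAs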

ADGRF3 (GeneID 165082)
- viability hit class: no change
- caspase hit class: no change
- viability robust z-score: -0.82
- caspase robust z-score: 2.42

SOFU1 (GeneID 135927)
- viability hit class: no change
- caspase hit class: no change
- viability robust z-score: 0.26
- caspase robust z-score: 0.31

SPEF1 (GeneID 25876)
- viability hit class: no change
- caspase hit class: no change
- viability robust z-score: 0.19
- caspase robust z-score: -0.94

PISD (GeneID 23761)
- viability hit class: no change
- caspase hit class: no change
- viability robust z-score: -3.49
- caspase robust z-score: 0.46

PRRC2A (GeneID 7916)
- viability hit class: no change
- caspase hit class: no change
- viability robust z-score: -0.57
- caspase robust z-score: 1.05

GALNT2 (GeneID 2590)
- viability hit class: no change
- caspase hit class: no change
- viability robust z-score: -1.29
- caspase robust z-score: 0.04

SOX4 (GeneID 6659)
- viability hit class: no change
- caspase hit class: no change
- viability robust z-score: 1.23
- caspase robust z-score: -0.02

VMO1 (GeneID 284013)
- viability hit class: no change
- caspase hit class: no change
- viability robust z-score: -1.1
- caspase robust z-score: 0

TCEAL6 (GeneID 158931)
- viability hit class: no change
- caspase hit class: no change
- viability robust z-score: 0.21
- caspase robust z-score: 0.14

CDIP1 (GeneID 29965)
- viability hit class: no change
- caspase hit class: no change
- viability robust z-score: -0.57
- caspase robust z-score: -0.44

TBXAS1 (GeneID 6916)
- viability hit class: no change
- caspase hit class: no change
- viability robust z-score: 1
- caspase robust z-score: 0.12

Ordered by “viability robust z-score” (ascending): some entries from above.
PISD (GeneID 23761)
- viability hit class: no change
- caspase hit class: no change
- viability robust z-score: -3.49
- caspase robust z-score: 0.46

PRRC2A (GeneID 7916)
- viability hit class: no change
- caspase hit class: no change
- viability robust z-score: -0.57
- caspase robust z-score: 1.05

Next results follow:
DNM3 (GeneID 26052)
- viability hit class: no change
- caspase hit class: no change
- viability robust z-score: -0.12
- caspase robust z-score: -0.28

PCDHGA9 (GeneID 56107)
- viability hit class: no change
- caspase hit class: no change
- viability robust z-score: -0.12
- caspase robust z-score: 0.77

C20orf141 (GeneID 128653)
- viability hit class: no change
- caspase hit class: no change
- viability robust z-score: -0.24
- caspase robust z-score: -0.28

SHISA6 (GeneID 388336)
- viability hit class: no change
- caspase hit class: no change
- viability robust z-score: 0.86
- caspase robust z-score: -0.34

DLG4 (GeneID 1742)
- viability hit class: no change
- caspase hit class: no change
- viability robust z-score: -0.24
- caspase robust z-score: 0.32

SERPINI2 (GeneID 5276)
- viability hit class: no change
- caspase hit class: no change
- viability robust z-score: 1.84
- caspase robust z-score: 1.45

MICU3 (GeneID 286097)
- viability hit class: no change
- caspase hit class: no change
- viability robust z-score: -0.36
- caspase robust z-score: -0.89

LYST (GeneID 1130)
- viability hit class: no change
- caspase hit class: no change
- viability robust z-score: 0.76
- caspase robust z-score: 0.97

C10orf90 (GeneID 118611)
- viability hit class: no change
- caspase hit class: no change
- viability robust z-score: 0.54
- caspase robust z-score: 1.05

KCNJ6 (GeneID 3763)
- viability hit class: no change
- caspase hit class: no change
- viability robust z-score: -4.88
- caspase robust z-score: 4.74

STT3B (GeneID 201595)
- viability hit class: no change
- caspase hit class: no change
- viability robust z-score: -0.14
- caspase robust z-score: 0.9

UBE3B (GeneID 89910)
- viability hit class: no change
- caspase hit class: no change
- viability robust z-score: -0.51
- caspase robust z-score: 2.29

IFNL3 (GeneID 282617)
- viability hit class: no change
- caspase hit class: no change
- viability robust z-score: 0.81
- caspase robust z-score: -0.17

ZNF518A (GeneID 9849)
- viability hit class: no change
- caspase hit class: no change
- viability robust z-score: -0.2
- caspase robust z-score: 1.82

CCDC73 (GeneID 493860)
- viability hit class: no change
- caspase hit class: no change
- viability robust z-score: 0.24
- caspase robust z-score: 0.86

FICD (GeneID 11153)
- viability hit class: no change
- caspase hit class: no change
- viability robust z-score: -0.18
- caspase robust z-score: -1.4
